Library screen at single concentrations

The chains behind the UniProt entries cited, without tags or fusion partners. Residues count along the entry.
UniProt Q8IDJ8, 1-583: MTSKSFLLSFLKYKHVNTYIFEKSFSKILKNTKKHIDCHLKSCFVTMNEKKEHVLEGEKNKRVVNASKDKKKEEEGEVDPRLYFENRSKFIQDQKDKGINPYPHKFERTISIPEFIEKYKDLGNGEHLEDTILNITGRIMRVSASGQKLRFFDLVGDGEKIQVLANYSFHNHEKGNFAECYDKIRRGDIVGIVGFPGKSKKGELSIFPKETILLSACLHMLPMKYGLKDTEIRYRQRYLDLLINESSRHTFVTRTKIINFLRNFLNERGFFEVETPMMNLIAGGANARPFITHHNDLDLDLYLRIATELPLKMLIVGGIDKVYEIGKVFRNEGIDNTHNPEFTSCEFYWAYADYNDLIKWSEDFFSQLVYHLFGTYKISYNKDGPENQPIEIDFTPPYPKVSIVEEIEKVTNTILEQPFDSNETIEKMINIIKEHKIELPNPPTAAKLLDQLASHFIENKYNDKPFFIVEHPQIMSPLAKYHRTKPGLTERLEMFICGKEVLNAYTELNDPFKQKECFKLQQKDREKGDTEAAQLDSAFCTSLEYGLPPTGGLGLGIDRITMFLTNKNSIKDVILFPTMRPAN
UniProt I6X8D2, whole entry: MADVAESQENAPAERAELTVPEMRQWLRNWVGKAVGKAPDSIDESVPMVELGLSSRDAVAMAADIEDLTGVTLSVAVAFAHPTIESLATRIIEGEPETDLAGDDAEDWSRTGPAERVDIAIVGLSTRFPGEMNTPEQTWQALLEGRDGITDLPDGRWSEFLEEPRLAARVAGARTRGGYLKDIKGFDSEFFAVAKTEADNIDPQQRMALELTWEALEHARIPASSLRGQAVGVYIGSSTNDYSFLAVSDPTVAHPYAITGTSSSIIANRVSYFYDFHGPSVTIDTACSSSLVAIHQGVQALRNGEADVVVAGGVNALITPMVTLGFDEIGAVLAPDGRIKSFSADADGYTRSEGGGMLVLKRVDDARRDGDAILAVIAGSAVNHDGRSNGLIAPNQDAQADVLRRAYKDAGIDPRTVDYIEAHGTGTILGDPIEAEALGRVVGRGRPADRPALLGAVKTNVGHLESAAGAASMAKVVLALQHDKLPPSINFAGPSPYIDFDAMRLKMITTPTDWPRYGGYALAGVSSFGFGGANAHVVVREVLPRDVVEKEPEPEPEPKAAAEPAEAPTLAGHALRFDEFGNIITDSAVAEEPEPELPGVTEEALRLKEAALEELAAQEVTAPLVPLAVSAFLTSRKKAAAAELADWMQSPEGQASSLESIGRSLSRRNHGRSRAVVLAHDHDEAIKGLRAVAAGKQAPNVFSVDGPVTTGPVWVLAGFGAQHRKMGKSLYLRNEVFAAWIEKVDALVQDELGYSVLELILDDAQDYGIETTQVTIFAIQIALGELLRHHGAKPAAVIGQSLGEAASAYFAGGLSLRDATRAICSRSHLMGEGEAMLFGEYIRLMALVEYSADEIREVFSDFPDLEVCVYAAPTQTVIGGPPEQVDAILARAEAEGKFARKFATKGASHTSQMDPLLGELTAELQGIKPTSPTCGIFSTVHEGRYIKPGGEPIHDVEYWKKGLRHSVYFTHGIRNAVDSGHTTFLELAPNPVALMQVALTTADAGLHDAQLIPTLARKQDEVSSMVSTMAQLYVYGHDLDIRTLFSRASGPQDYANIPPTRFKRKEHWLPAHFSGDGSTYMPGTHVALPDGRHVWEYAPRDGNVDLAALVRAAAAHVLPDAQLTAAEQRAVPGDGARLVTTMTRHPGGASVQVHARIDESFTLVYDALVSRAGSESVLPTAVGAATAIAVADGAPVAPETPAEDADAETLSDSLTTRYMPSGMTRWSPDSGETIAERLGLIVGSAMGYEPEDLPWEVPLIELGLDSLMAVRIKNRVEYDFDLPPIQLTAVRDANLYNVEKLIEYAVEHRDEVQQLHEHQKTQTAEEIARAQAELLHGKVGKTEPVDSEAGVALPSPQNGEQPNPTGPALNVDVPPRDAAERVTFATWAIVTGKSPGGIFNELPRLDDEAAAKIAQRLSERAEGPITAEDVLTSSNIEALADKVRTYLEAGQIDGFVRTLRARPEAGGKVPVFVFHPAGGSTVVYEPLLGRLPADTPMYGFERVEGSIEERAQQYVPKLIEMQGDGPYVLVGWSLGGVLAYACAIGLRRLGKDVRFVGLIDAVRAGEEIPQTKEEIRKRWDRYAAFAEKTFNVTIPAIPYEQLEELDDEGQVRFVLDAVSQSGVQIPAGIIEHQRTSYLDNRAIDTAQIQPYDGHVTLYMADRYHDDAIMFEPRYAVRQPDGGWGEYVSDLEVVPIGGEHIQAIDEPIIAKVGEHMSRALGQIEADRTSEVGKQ
UniProt P9WFT3, whole entry: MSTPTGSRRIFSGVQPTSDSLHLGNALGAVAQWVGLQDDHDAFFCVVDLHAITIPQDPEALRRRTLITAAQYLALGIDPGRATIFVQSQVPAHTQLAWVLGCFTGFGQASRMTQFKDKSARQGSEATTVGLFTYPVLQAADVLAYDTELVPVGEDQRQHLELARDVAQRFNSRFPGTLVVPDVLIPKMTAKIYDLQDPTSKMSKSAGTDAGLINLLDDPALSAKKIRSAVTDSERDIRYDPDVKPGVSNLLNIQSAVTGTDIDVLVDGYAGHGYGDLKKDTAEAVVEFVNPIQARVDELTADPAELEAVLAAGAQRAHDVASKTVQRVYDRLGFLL
UniProt Q4DA54, 1-478: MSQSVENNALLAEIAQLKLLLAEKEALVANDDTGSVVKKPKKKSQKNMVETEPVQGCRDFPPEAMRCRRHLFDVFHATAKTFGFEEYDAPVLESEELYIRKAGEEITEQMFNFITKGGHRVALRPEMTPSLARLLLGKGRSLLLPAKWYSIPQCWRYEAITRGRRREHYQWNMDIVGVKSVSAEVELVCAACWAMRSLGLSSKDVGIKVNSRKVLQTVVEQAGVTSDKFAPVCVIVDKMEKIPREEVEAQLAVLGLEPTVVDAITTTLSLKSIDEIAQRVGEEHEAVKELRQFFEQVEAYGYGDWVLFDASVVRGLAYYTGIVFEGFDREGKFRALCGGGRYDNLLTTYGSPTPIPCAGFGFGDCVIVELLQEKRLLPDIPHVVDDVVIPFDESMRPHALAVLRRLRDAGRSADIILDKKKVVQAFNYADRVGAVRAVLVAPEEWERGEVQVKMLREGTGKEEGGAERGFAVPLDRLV

Values are the deposited “Percent Effect”, in %. The record does not define 0% and 100%; most values in the screen are far below 50% and negative numbers occur (in some assays of this library far below -100). This is an unselected part of the compounds tested. A dash means the value is not listed here; it may have been measured.

A: 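Enzyme assay of the cytosolic lysyl-tRNA synthetase in 384-well plates, read by luminescence. Target: Lysine-tRNA ligase, Plasmodium falciparum 3D7 (UniProt Q8IDJ8). Concentration: 30 µM. Direction is inferred from only a few compounds that gave an IC50; most scored high, so higher reads as stronger inhibition. About 69,000 compounds were tested under these conditions; 0.071% (about 49) showed 50% or more at least once.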
B: 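Enzyme assay of the thioesterase domain of polyketide synthase 13; the read-out is not stated. Target: Polyketide synthase Pks13, Mycobacterium tuberculosis (UniProt I6X8D2). Concentration: 30 µM. The record gives no direction; the compounds picked for IC50 retests had high values, so higher reads as stronger inhibition. Size under these conditions: about 67,000 compounds, about 300 of them at 50% or above in at least one test.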
C: 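Tryptophan-tRNA ligase, Mycobacterium tuberculosis (UniProt P9WFT3). Enzyme assay of tryptophanyl-tRNA synthetase; the read-out is not stated. Tested at 10 µM. Direction is not recorded; retested compounds ran higher, which suggests that high means inhibition. Of about 65,000 compounds tested this way, about 64 (0.098%) reached 50% or more in at least one test.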
D: 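Histidine-tRNA ligase, Trypanosoma cruzi CL Brener (UniProt Q4DA54). Enzyme assay of histidyl-tRNA synthetase; the read-out is not stated. Tested at 30 µM. Higher reads as stronger inhibition (inferred: compounds with an IC50 in retests scored well above the rest). Of about 69,000 compounds tested this way, about 31 (0.045%) reached 50% or more in at least one test.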

| compound | A | B | C | D |
|---|---|---|---|---|
| `COc1ccc(-n2nnnc2C(C)(C)Nc2ccc(C)cc2C)cc1` | 9.211 | -14.39 | 1.795 | 1.754 |
| `CC(C)c1ncc(CNC2(c3ccc(Cl)cc3)CC2)cn1` | 0.9447 | -16.09 | -4.348 | 6.716 |
| `Cc1nn(C)c(Cl)c1C1CCCN1C(=O)c1ccnc(N(C)C)c1` (stereo not drawn) | -0.718 | -18.99 | -4.514 | 6.122 |
| `Cc1nc2ccccn2c1CN(Cc1cccnc1)CC1CCCO1` (stereo not drawn) | 0.4521 | -5.221 | 1.212 | 3.306 |
| `CC(C)N1CCc2[nH]nc(C(=O)N3CCCC3C)c2C1` (stereo not drawn) | 2.914 | -29.34 | 5.416 | -0.9709 |
| `O=C(NCC(F)F)N1CCC(n2ccc(C(F)(F)F)n2)CC1` | -2.168 | -10.94 | 0.4989 | 0.8264 |
| `CN(C)C(=O)[C@@H]1C[C@@H]2CCN(C3CCOCC3)C[C@H]2O1` | 1.181 | -14.74 | -0.2722 | 0 |
| `CC1CC(=O)c2cc(C(=O)N3CCc4ccccc4C3)c(=O)[nH]c2C1` (stereo not drawn) | 6.42 | -14.38 | 0.1356 | 6.211 |
| `CC(Cn1cccn1)NCc1csc(-c2ccccc2F)n1` (stereo not drawn) | -3.227 | -7.261 | -33.57 | 0.7519 |
| `CC(C)(NC(=O)c1ccc(-c2ccc(F)cc2)s1)C(N)=O` | 10.26 | -17.81 | -0.25 | 5.699 |
| `COc1ccc2c(c1)C1(CCN(Cc3ccoc3)CC1)N(C)CC2` | 4.803 | -27.36 | 0.7718 | 4.348 |
| `CC(=O)N1CCC2(CCN(C(=O)c3ccc(F)c(C(F)(F)F)c3)CC2)C1` | 4.513 | -4.141 | -0.1744 | 5.785 |
| `CN(C)CCCNC(=O)c1cc(-c2ccc3c(c2)CCO3)n[nH]1` | 2.255 | -2.574 | -0.9104 | -0.5848 |
| `O=C(NC1CCCc2c1[nH]c1ccc(F)cc21)c1n[nH]c2c1CCC2` (stereo not drawn) | 6.77 | 15.09 | 2.251 | 5.941 |
| `CN1CCN(C(=O)c2cccc(OCc3cscn3)c2)CC1` | -3.048 | -8.178 | -4.38 | 5.344 |
| `Cc1cc2nccc(C3CCCN(C(=O)c4ccccc4F)C3)n2n1` (stereo not drawn) | 2.346 | 0.3103 | -5.21 | 2.326 |
| `c1cnc2nc(N3CCc4c(ncn4C4CC4)C3)ccc2n1` | 3.933 | -3.032 | -1.3 | 4.762 |
| `Cc1cc(NCc2cc3n(n2)CCCN(C(=O)C2CCC2)C3)ncn1` | 2.811 | -6.484 | 5.713 | 5.025 |
| `c1ccc2cc(OCCN3CCn4c(nnc4C4CC4)C3)ccc2c1` | 2.333 | -28.48 | -0.5912 | 13.21 |
| `CCC(C)NC(=O)c1cc(S(=O)(=O)N(C)C)c(C)s1` (stereo not drawn) | 1.736 | -2.567 | -4.903 | 4.857 |
| `CC(C)Cc1cc(C(=O)NCC(c2ccc(F)cc2)N(C)C)n(C)n1` (stereo not drawn) | -2.336 | -42.09 | 2.477 | 7.895 |
| `c1ccc(Cc2noc(CN3CCCC(Cn4cncn4)C3)n2)cc1` (stereo not drawn) | -1.515 | 9.991 | -0.2366 | 0.8596 |
| `O=C(NCc1cc[nH]n1)NCC(O)COc1cccc(F)c1` (stereo not drawn) | 0.8015 | -4.062 | -0.08446 | 7.17 |
| `Cc1cc(CN2CCC(CNC(=O)c3ccc(C#N)cc3)C2)[nH]n1` (stereo not drawn) | 4.132 | 15.74 | -2.804 | 5.435 |
| `NCCC(=O)NCC1(O)CCCN(c2ccnc3cccnc23)C1` (stereo not drawn) | 0.5549 | 13.24 | 2.626 | 6.818 |
| `CC(Cc1ccco1)NC(=O)CCn1cccn1` (stereo not drawn) | 2.099 | -9.991 | -2.235 | 8.743 |
| `COc1ccc(CCNC(C)c2ccc3[nH]c(=O)[nH]c3c2)cc1OC` (stereo not drawn) | -1.546 | -1.868 | -4.309 | 4.651 |
| `CN(C)Cc1ccnc(C2CCCN2Cc2cc[nH]n2)n1` (stereo not drawn) | -5.397 | -43.79 | -5.602 | 7.027 |
| `COc1cc(N2CCC3(CC2)CN(CCO)c2ccccc23)ncn1` | 3.321 | 19.12 | - | 6.145 |
| `NC(=O)CSCC(=O)NCC1CCCC1` | 3.496 | -10.22 | -4.258 | 9.091 |
| `CCc1cc(N[C@@H](CC(C)C)C(N)=O)n2nc(C)c(C)c2n1` | 1.628 | -17.67 | 1.079 | 2.89 |
| `CC(C)(C)CNC(=O)c1ccc(C(=O)O)nc1` | 2.197 | -15 | -0.89 | 5.699 |
| `CC(C)Oc1cccc(C(=O)C2CCCN(C(=O)c3ccccn3)C2)c1` (stereo not drawn) | -1.388 | -21.1 | -2.864 | 3.333 |
| `CC(C)n1ccc(CN2CCN(c3cc(NC4CC4)nc(N)n3)CC2)c1` | 1.07 | -19.69 | -4.549 | 10.5 |
| `COCCCNC(=O)CN(C)C(=O)c1ccccc1O` | 0.8174 | -13.79 | 3.29 | 10.2 |
| `O=C(Nc1ccccc1)C1CCCN(C(=O)Cn2cncn2)C1` (stereo not drawn) | 6.233 | -26.08 | -0.4836 | 2.717 |
| `COCC(NC(=O)c1cc[nH]n1)c1cccc(C(F)(F)F)c1` (stereo not drawn) | -1.426 | -5.153 | 5.061 | 0 |
| `CCNc1ncc(-c2cc(-c3ccn(C)c3)nc(N)c2C#N)cn1` | 5.39 | 5.419 | -2.786 | 12.71 |
| `Cc1cc(S(=O)(=O)N(C)CC(N)=O)ccc1Br` | 8.902 | 10.42 | -2.089 | 1.667 |
| `COCCN1C[C@@H]2OCCN(c3ccnc(N(C)C)n3)[C@@H]2C1` | 2.972 | -11.72 | 0.53 | 15.08 |
| `CO[C@H]1CN(Cc2ccccc2F)[C@@H]2CCCO[C@H]12` | 2.646 | -28.78 | 0.7229 | 4.95 |
| `CC(C)NC(=O)c1cc(-c2ccc(S(C)(=O)=O)cc2)nc2c1cnn2C` | 0.747 | -12.25 | 2.334 | 5.325 |
| `CC(C)c1ccc(S(=O)(=O)Cc2nc(N)nc(N(C)C)n2)cc1` | 0.4078 | -29.53 | -8.004 | 3.911 |
| `CS(=O)(=O)N1CCN(C(=O)c2cncs2)CC(C(N)=O)C1` (stereo not drawn) | 2.507 | -719.1 | -5.548 | 3.955 |
| `Cc1csc(N2CCN(CCc3ccccn3)CC2C)n1` (stereo not drawn) | -1.565 | -12.98 | -2.78 | 0.8264 |
| `COc1cccc(CCC(=O)N2CCC[C@@H](N)[C@@H]2c2ccccc2F)c1` | 0.783 | -8.878 | -2.734 | -1.149 |
| `COc1cccc(CNc2cc(C)nc(-c3ccncc3)n2)c1O` | 3.209 | -8.466 | 4.024 | 2.186 |
| `CN1CC(C(=O)Nc2ccc(OCC(F)(F)C(F)F)nc2)CC1=O` (stereo not drawn) | 0.6741 | 5.523 | -3.215 | 0 |
| `Cc1noc([C@H]2C[C@H]3OCC[C@H]3N(Cc3cccs3)C2)n1` | 3.994 | -16.41 | -1.399 | 8.867 |
| `CC(c1cccnc1)N(C)S(C)(=O)=O` (stereo not drawn) | -2.255 | -14.44 | -9.098 | 6.077 |
| `FC(F)(F)c1ccc2[nH]c([C@H]3CCNC3)nc2c1` | -0.4211 | -31.31 | -0.3814 | 1.493 |
| `CS(=O)(=O)NC1CCN(C(=O)c2ccc(Br)o2)C1` (stereo not drawn) | 2.727 | -31.2 | -1.125 | 2.128 |
| `CC1COc2ccccc2N1C(=O)CCc1cscn1` (stereo not drawn) | 3.063 | -15.66 | 5.44 | 4.167 |
| `Cc1nn(C)cc1-c1cc(C(F)(F)F)nc(NC2CCCCC2)n1` | 0.2972 | 1.65 | 1.713 | 5.155 |
| `CC1CCCCN1c1nc2c(c(=O)[nH]1)CCN(Cc1ccccc1F)C2` (stereo not drawn) | 0.6442 | 6.407 | - | 5.495 |
| `CCn1ccnc1CN(C)C1CCCN(CCCc2ccccc2)C1` (stereo not drawn) | -3.542 | 2.925 | -1.232 | -5.528 |
| `CCCc1cc(=O)[nH]c(-c2ccccc2CN(C)CCn2cccn2)n1` | 4.58 | 0.707 | -0.2513 | -2.4 |
| `CCc1ccc(S(=O)(=O)N2CCN(CCn3ccnc3)CC2)cc1` | 2.675 | -37.47 | -2.026 | 2.41 |
| `Cn1ccnc1CN1CCC(CCC(=O)Nc2ccccc2Cl)CC1` | 4.319 | -10.65 | -0.241 | 0.9901 |
| `Cc1occc1CNC(=O)NCCN(C)C1CCCC1` | -0.03529 | -0.4882 | -4.237 | 2.035 |
| `Cc1cc(C)n(CC2CCCN2C(=O)Cc2csc(C)n2)n1` (stereo not drawn) | 4.889 | 7.73 | -4.004 | 1.685 |
| `CN(C)S(=O)(=O)N1C[C@@H]2CC[C@H](C1)N(Cc1ccc(F)c(F)c1)C2` | 2.263 | -9.039 | -4.848 | 1.02 |
| `COc1c(Br)c(C(=O)NC2CCCC2)nn1C` | 3.918 | 12.29 | 4.203 | 6.211 |
| `Clc1cccc(C(CNCc2ccccn2)N2CCOCC2)c1` (stereo not drawn) | -1.469 | -11.43 | -7.687 | -4.867 |
| `CCS(=O)(=O)CCN(C)Cc1cc(C)ccc1OC` | 4.413 | 3.591 | -4.832 | -0.5848 |

Repeated from the top, 5 entries:

compound,A,B,C,D
COc1ccc(-n2nnnc2C(C)(C)Nc2ccc(C)cc2C)cc1,9.211,-14.39,1.795,1.754
CC(C)c1ncc(CNC2(c3ccc(Cl)cc3)CC2)cn1,0.9447,-16.09,-4.348,6.716
Cc1nn(C)c(Cl)c1C1CCCN1C(=O)c1ccnc(N(C)C)c1 (stereo not drawn),-0.718,-18.99,-4.514,6.122
Cc1nc2ccccn2c1CN(Cc1cccnc1)CC1CCCO1 (stereo not drawn),0.4521,-5.221,1.212,3.306
CC(C)N1CCc2[nH]nc(C(=O)N3CCCC3C)c2C1 (stereo not drawn),2.914,-29.34,5.416,-0.9709

From ChEMBL document CHEMBL3988442, “University of Dundee, Small-Polar-MMV Screening Library” (2021).